For test [1], the target named is cynomolgus CXCL13 (cynomolgus) (UniProt H6WS58). The experiment in a line: ELISA, subclone supernatants.
The target is the same in test [2]. The test is described as follows: ELISA, full length IgG1.
Test [3] shares this target. The test is described as follows: ELISA, cynoCXCL13 coated on the plate, full length humanized IgG1 titrated, OD450.
In the next test the target is mouse CXCL13 (mouse) (UniProt O55038). The test is described as follows: ELISA, subclone supernatants. (In an ELISA, binding on a coated surface is turned into a signal by an enzyme label.)
Test [4] concerns the target human CXCL13 (human) (UniProt O43927). The test is described as follows: ELISA, subclone supernatants.
The target is the same in test [5]. The test is described as follows: ELISA, full length IgG1.
The target in test [6] is cynomolgus CXCL13 (cynomolgus) (UniProt H6WS58). The experiment in a line: ELISA, cynoCXCL13 coated on the plate, chimeric IgG1 titrated, OD450.

The chains behind the UniProt entries cited, without tags or fusion partners. Where a name states a change or a piece, a line headed by the entry shows the natural chain unless it says otherwise. A line that says so, or that is headed by a name, gives the form on record, which may keep a tag or linker. Residues count along the entry.
cynomolgus CXCL13 (H6WS58, form named): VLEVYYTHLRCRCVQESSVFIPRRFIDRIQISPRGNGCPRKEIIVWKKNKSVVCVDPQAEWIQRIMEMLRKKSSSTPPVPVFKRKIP
UniProt O55038, residues 22-109: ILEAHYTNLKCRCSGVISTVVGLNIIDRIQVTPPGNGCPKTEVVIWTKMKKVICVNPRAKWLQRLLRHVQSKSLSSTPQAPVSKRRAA
UniProt O43927, residues 23-109: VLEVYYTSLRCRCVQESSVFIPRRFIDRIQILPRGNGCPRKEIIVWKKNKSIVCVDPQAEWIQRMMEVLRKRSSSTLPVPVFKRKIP

Results are given in words; binding and its absence hold for the method and conditions named. Some results given as binding are weak or reduced against the parent protein; the word gives no strength.

B1: 19H7E10 (antibody, V domains shown)
VH: EVQLQQSGPELVKPGASVKISCQASGYAFSDYYMNWVKQSHGKRLEWIGDINPNNDGTTYNQKFKDKATLTVDKSSSTAYMDLRSLTSEDSAVYYCARLSWSFFAMDYWGQGTSVTVSS
VL: DIVMTQSHKFMSTSVGDRVSITCKASQDVSSGVAWYQQKPGQSPKVLIYSASHRHTGVPDRFTASGSGTDFTFTISSVQAEDLAVYYCQQYYNTPWTFGGGTKLEIK
As for B1, the binding entry in test [1] was “binds”.

B2: 64C10G1-VH1VL3 (D53E, D107E) humanized IgG1 (antibody, V domains shown)
VH: EVQLVESGGGLVQPGGSLRLSCAASGFTFSSYAMSWVRQAPGKGLEWVATISEGGSDAYYPDNVKGRFTISRDNAKNSLYLQMNSLRAEDTAVYYCARDYYGSGYEESPMDYWGQGTLVTVSS
VL: DIQMTQSPSSLSASVGDRVTITCKASQDINKYIAWYQQKPGKAPKLLIHYTSTLQPGIPSRFSGSGSGTDFTFTISSLQPEDFATYYCLQYDNLYTFGGGTKLEIK
For the molecule B2, the binding entry in test [2] and in test [3] was “binds” throughout.

B3: 430D9B3 (antibody, V domains shown)
VH: QVTLKESGPEILQPSQTLSLTCTFSGFSLSPYGMGVGWIRQPSGKGLEWLANIWWDDDKYYNPSLINRLTISKDTSNNQAFLKITNVDTTDSATYYCVRSELVMPYVPFDYWGQGVMVTVSS
VL: DIQMTQSPSSMSASLGDRVTITCQASQDIENDLIWFQQKPGKSPRPLIYYATNLANGVPSRFSGRRSESNYSLTISSLESEDMADYHCLQFKQYPYTFGAGTKLELK
On to B3, for which the binding entry in the test with mouse CXCL13 (mouse) and in the test with human CXCL13 (human) [4] was “binds” each time.

B4: 414D10F5 (antibody, V domains shown)
VH: EVQLAESGGGLVQPGRSLKLSCSASGFTFSDYYMAWFRQAPPKGLEWVASISYDGGDSFYRDSVKGRFTISRDNAKSSLYLQMDSLRSEDTATYYCTTEEDYSGSFPDYWGQGVMVTVSS
VL: DIQMTQSPSFLSASVGDRVTINCKASQNINKYLNWYQQKLGEAPKRLIYDTNNLQAGIPSRFSGSGSGTDYTLTINSLQPEDFATYFCLQHNSLYTFGGGTKLELK
B4: the binding entry in the test with human CXCL13 (human) [4] is given as “binds”.

B5: 411A11E9 (antibody, V domains shown)
VH: EVQLVESGGGLVQPGGSLKLSCVVSGFTFSDYYMAWVRQTPTKGLEWVASINYDGGDTYYRDSVKGRFTVSRNNAKSSLFLQMDSLRSEDTATYYCKTEEDYDGSYVMDAWGQGASVIVSS
VL: DIQMTQSPSFLSASVGDRVTISCKASQNINKELTWYQQKLGKAPKRLIYNTNILQTGIPSRFSGSGSNTDYTLTISSLQPEDFATYFCLQQSSLYTFGAGTKLELK
With B5, the binding entry in test [1] is on record as “binds”.

B6: 415A3D1F4 (antibody, V domains shown)
VH: EVKLLESGGGLVQAGGSMRLSCGAFGFTVTDFYINWIRQPAGKAPEWLGFMRNKANGYTTEYNPSVKGRFTISRNNTQNMPYLQMNTLRTEDTAIYYCARSRYNADDYYVGVMDVWGQGASVTVSS
VL: DIQMTQFPASLSASLGETVSIECLASEDIYNNLAWYQQKPGKSPQLLIYYTNSLQDGVPSRFSGTGSGTQYSLKINSLESEDAATYFCLQDSEYPWTFGGGTKLKLK
On to B6, for which the binding entry in test [1] is recorded as “binds”.

B7: 178B2E8 (antibody, V domains shown)
VH: EVKLVESEGGLVQPGSSMKLSCTASGFTFTDYYMTWVRQVPEKGLEWVANINYDGSRTNYLDSLKSRFIISRDNAKNILYLQMSSLKSEDTATYYCARDGNYHFYGMDYWGQGTSVTVSS
VL: DFVLTQSHKFMSTSVGDRVSITCKASQDVSTAVAWYQQKPGQSPQLLIYWASTRHTGVPDRFTGSGSGTDYTLTISSVQAEDLALYYCQQHYSTPWTFGGGTKLEIK
With B7, in the test with human CXCL13 (human) [4], the binding entry is reported as “binds”.

B8: 21H12D9 (antibody, V domains shown)
VH: EVQLQQSGPVLVRPGASVKMSCKASGYTFTDYYMNWVKQSHGKSLEWIGVINPNNGGTTYKEKFKGKATLTVDKSSGTAYMELNSLTSEDSAVYYCARDDYDAGYWGQGTTLTVSS
VL: DIVMTQFQKFMSTTVGDRVSITCKASQNVDTAVAWYQHKPGQSPKLLIYSASHRYTGVPDRFTGSGSGTDFTLTISNVQSEDLADYFCQQYTDFPLTFGAGTKLELK
With B8, the binding result in test [1] is on record as “binds”.

B9: 408E3F3 (antibody, V domains shown)
VH: HVTLRESGPGVLQPSKTLSLTCSFSGFSLSTSAMVVSWIRQSSGMSLEWLAAIDWEGDKYYNPSLESRLTVSRDISDTQVFLRITSVDVADTATYYCAVMSSADSHSVLDAWGQGVSVTVSS
VL: DIKMTQSPSFLSASVGDRVTINCKASQNIHNYLNWYQQKFGEAPRLLIYNTNNLQTGIPSRFSGSGSGTDFTLTISSLQPEDVATYFCLQHSSSLTFGSGTKLEIN
For the molecule B9, the binding result (in test [1]; in the test with human CXCL13 (human) [4]) was “binds” throughout.

B10: 329F2E1 (antibody, V domains shown)
VH: EVKLLQSGGGLVQPGGSLKLSCAASGIDFSRYWMSWVRRAPGKGLEWIGEINPDSSTINYAPSLKDKFIISRDNAKNTLYLQMSKVRSEDTALYYCARQDDYDYYAMDYWGQGTSVTVSS
VL: DIVMTQSHKFMSTSVGDRVSITCKASQDVSTGVAWYQQKPGQSPKLLIYSASYRYTGVPDRFTGSGSRTDFTFTISSVQTEDPAVYYCHQYYTIPLTFGAGTELELK
Consider B10, for which, in test [1], the binding result is reported as “binds”.

B11: 71F4A3-VH1VL1 (Hz71F4) (D54E) humanized IgG1 (antibody, V domains shown)
VH: EVQLVESGGGLVQPGGSLRLSCAASGIDFSRYWMSWVRQAPGKGLEWVAEINPESSTINYAPSLKDRFTISRDNAKNSLYLQMNSLRAEDTAVYYCARQDDYEYYAMDYWGQGTTVTVSS
VL: DIQMTQSPSSLSASVGDRVTITCKASQDVNTGVAWYQQKPGKAPKLLIYSASYRYTGVPSRFSGSGSGTDFTFTISSLQPEDIATYYCQQYYSTPLTFGGGTKLEIK
B11: the binding result (in test [2]; in the test with human CXCL13 (human) [5]; in test [3]) was “binds” throughout.

B12: 71F4A3-VH1VL2 (D54E) humanized IgG1 (antibody, V domains shown)
VH: EVQLVESGGGLVQPGGSLRLSCAASGIDFSRYWMSWVRQAPGKGLEWVAEINPESSTINYAPSLKDRFTISRDNAKNSLYLQMNSLRAEDTAVYYCARQDDYEYYAMDYWGQGTTVTVSS
VL: DIQMTQSPSSLSASVGDRVTITCKASQDVNTGVAWYQQKPGKAPKLLIYSASYRYTGVPSRFSGSGSGTDFTFTISSVQPEDIATYYCQQYYSTPLTFGGGTKLEIK
Take B12: the binding entry in test [2] and in test [3] was “binds” each time.

B13: 64C10G1 chimeric human IgG1 antibody (antibody, V domains shown)
VH: EVQLVESGGGLVKPGGSLKLSCAASGFTFSSYAMSWVRQTPEKRLEWVATISDGGSDAYYPDNVKGRFTISRDNAKNNLYLQMSHLKSEDTAMYYCARDYYGSGYEDSPMDYWGQGTSVTVSS
VL: DIQMTQSPSSLSASLGGKVTITCKASQDINKYIAWYQHKPGKGPRLLIHYTSTLQPGIPSRFSGSGSGRDYSFSISNLEPEDFATYYCLQYDNLYTFGGGTKLEIK
In the case of B13, the binding entry in test [6] was “binds”.

B14: 1H3A11 (antibody, V domains shown)
VH: EVQLVESGGGLVKPGGSLKLSCAASGFTFSSYAMSWVRQTPEKRLEWVATISDGGSDTYYPDNVKGRFTISRDNAKNNLYLQMSHLKSEDTAMYYCARDYYGSSYEDYAMDYWGQGTSVTVSS
VL: DIQMTQSPSSLSASLGGKVTITCKASQDINKYITWYQHKPGKGPRLLIHYTSTLQPGIPSRFSGSGSGRDYSFSISNLEPEDIATYYCLQYDNLYTFGGGTKLEIK
In the case of B14, in test [1], the binding entry is on record as “binds”.

B15: 64C10G1 (antibody, V domains shown)
VH: EVQLVESGGGLVKPGGSLKLSCAASGFTFSSYAMSWVRQTPEKRLEWVATISDGGSDAYYPDNVKGRFTISRDNAKNNLYLQMSHLKSEDTAMYYCARDYYGSGYEDSPMDYWGQGTSVTVSS
VL: DIQMTQSPSSLSASLGGKVTITCKASQDINKYIAWYQHKPGKGPRLLIHYTSTLQPGIPSRFSGSGSGRDYSFSISNLEPEDFATYYCLQYDNLYTFGGGTKLEIK
For the molecule B15, the binding result in test [1] is “binds”.

The values above are taken from patent US20210284724A1.
